Laboratory results taken from patent publication US20140086829A1 (BIOREC S A, published 2014).
No constants are given. Whether binding was seen depends on the method and setting. Some binding calls cover weakened binding; strength is not graded here.

Target: T1, human GST-VEGF (human, UniProt P15692-9 27-147)
T1 construct: also called GST-VEGF humano; not shown: GST fusion partner
T1 sequence (looked up): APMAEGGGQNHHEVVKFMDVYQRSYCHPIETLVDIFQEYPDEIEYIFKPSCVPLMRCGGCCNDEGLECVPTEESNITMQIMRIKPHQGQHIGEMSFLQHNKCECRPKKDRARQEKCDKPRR
Assay: competition ELISA on coated GST-VEGF with soluble scFv 2H1

B1: phage displayed scFv clone L3H6 (scFv, V domains shown)
VH: QVQLVQSGAEVKKPGESLKISCKGSGYSFTSYWIGWVRQMPGKGLEWMGIIYPGDSDTRYSPSFQGQVTISADKSISTAYLQWSSLKASDTAMYYCARQGTHNRKIWGQGTMVTVSS
VL: QAVVTQEPSLTVSPGGTVTLTCASSTGAVTSGNYPNWFQQRPGQPPRALIYSTSNKHSWTPARFSGSLLGGKAALTLSGAQPEDEAEYYCRLSYDLARPVFGGGTKLTVLG
Q: B1 was tested. Which binding did it give?
A: Its binding is “binds”.
